Test results as given in the supplement of paper PMC10849652.
This is one part of the list.

Sequences of proteins named here, by UniProt entry; tags and fusion partners are left off. A change or cut given only in a name is not applied to a line headed by its entry.
UniProt P17987, whole entry, looked up: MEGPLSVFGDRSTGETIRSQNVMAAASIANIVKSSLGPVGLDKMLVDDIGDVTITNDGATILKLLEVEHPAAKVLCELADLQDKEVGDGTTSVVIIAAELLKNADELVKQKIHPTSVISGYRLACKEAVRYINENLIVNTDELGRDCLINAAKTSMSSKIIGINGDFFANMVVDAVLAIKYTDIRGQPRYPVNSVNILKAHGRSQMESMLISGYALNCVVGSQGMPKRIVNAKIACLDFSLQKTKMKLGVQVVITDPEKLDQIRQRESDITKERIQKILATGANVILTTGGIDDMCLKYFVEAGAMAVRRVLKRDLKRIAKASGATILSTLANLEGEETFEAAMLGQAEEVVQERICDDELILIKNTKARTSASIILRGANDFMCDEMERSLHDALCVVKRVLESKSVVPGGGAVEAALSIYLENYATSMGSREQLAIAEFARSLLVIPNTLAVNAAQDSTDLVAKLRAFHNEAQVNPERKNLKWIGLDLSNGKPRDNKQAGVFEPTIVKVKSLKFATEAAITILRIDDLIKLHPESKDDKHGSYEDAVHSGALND
UniProt Q5JUR7: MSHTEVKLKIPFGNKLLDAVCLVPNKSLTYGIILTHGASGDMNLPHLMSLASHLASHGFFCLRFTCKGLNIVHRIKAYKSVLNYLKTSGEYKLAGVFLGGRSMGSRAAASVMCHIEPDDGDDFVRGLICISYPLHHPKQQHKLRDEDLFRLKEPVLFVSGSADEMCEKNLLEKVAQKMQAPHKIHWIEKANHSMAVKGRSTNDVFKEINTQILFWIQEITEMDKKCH
UniProt Q93075: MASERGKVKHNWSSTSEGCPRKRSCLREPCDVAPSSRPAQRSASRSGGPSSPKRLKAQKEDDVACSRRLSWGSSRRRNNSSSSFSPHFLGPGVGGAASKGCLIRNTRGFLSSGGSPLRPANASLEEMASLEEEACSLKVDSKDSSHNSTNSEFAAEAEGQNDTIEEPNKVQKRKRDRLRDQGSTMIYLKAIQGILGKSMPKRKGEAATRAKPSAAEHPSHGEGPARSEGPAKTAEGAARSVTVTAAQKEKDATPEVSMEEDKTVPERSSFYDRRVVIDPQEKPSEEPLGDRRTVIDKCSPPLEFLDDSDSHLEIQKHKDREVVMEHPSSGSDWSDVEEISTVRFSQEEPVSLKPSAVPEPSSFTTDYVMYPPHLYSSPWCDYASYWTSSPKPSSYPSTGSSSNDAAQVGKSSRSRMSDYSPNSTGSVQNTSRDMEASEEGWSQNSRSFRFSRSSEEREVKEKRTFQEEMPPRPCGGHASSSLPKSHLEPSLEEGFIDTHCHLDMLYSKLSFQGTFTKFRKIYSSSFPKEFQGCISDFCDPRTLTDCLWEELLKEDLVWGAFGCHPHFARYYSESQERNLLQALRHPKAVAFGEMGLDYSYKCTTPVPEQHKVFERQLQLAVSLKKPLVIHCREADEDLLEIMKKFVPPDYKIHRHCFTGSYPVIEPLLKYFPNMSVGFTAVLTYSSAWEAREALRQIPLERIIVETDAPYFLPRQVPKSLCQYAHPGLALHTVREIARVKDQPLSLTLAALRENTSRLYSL
UniProt O14776: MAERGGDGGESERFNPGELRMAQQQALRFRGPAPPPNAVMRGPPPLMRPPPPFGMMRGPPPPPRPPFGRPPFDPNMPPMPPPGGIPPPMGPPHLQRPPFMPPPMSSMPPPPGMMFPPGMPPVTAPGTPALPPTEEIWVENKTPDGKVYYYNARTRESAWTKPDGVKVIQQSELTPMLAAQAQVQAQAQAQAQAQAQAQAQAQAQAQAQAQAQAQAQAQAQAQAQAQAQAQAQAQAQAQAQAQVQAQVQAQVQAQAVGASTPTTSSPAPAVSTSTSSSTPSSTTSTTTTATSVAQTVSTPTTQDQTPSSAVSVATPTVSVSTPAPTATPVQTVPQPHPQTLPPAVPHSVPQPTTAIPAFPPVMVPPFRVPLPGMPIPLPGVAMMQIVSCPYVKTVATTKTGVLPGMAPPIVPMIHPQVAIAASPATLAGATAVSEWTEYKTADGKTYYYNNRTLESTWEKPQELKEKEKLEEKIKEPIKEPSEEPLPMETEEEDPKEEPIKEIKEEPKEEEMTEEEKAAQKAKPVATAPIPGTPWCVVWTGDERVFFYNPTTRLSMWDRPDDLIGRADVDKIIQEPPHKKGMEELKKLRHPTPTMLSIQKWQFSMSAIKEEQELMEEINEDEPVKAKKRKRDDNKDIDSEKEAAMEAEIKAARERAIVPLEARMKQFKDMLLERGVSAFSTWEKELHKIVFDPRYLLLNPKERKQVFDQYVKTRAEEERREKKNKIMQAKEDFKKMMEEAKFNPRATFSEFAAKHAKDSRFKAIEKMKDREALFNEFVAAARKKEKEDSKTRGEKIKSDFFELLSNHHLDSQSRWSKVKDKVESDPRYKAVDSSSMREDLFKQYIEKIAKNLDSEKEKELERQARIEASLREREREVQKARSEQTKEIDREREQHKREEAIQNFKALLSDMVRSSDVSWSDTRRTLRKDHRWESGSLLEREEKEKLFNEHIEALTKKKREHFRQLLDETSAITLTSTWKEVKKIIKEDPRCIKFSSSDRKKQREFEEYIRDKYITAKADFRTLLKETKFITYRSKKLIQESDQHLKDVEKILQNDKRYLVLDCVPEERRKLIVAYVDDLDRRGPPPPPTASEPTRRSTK
UniProt O95551: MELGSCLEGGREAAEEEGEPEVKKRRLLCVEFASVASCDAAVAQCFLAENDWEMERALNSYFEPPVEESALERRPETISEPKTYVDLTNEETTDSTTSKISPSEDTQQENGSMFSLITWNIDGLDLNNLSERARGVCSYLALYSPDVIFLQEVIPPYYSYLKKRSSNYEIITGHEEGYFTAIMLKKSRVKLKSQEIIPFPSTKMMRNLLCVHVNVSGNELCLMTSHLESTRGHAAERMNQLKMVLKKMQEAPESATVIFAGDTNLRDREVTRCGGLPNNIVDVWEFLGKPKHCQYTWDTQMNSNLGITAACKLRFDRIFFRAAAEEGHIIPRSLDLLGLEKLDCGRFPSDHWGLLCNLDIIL
UniProt Q4KMP7: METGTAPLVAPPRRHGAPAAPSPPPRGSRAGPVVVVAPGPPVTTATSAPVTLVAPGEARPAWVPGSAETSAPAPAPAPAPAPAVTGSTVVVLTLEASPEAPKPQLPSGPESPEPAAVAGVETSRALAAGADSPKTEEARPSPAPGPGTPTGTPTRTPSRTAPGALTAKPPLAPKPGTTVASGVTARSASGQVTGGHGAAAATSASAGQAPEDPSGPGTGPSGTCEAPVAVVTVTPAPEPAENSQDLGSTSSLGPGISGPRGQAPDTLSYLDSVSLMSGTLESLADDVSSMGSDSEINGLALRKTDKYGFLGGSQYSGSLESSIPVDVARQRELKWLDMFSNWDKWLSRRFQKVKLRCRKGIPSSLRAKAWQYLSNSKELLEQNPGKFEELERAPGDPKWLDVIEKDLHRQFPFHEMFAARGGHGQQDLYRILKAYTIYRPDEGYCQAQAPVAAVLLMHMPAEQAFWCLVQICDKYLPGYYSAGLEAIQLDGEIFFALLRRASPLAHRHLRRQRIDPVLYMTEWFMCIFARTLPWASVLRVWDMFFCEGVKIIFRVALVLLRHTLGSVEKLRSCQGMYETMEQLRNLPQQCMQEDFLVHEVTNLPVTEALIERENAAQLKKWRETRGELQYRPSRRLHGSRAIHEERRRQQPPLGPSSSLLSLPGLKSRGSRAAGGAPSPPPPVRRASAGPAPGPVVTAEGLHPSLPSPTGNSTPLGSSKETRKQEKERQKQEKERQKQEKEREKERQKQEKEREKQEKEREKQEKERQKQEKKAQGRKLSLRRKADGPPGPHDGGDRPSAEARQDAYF
UniProt Q9NUJ3: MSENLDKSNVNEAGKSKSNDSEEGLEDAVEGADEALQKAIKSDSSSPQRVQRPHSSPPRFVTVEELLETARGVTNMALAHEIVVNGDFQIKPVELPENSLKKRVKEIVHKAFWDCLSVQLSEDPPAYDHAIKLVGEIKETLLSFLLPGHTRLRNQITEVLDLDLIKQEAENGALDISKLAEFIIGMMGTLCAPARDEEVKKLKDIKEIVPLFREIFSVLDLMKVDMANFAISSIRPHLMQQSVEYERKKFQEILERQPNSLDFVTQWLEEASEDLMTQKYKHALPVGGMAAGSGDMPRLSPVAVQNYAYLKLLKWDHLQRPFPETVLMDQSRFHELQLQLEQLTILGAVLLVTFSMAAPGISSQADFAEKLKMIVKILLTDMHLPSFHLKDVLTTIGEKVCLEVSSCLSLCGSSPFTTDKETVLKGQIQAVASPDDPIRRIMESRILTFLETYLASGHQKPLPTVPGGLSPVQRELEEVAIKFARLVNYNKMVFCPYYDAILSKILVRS
UniProt Q15545, whole entry, looked up: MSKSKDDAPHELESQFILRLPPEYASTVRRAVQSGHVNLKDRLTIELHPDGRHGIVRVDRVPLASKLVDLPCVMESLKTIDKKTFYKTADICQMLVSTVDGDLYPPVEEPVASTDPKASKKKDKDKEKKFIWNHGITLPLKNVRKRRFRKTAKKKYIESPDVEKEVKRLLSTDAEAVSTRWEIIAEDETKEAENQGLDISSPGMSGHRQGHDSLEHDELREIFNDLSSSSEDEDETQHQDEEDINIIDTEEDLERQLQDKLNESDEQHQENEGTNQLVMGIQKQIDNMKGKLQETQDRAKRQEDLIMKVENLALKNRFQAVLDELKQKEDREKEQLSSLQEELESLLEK
UniProt P17542, whole entry, looked up: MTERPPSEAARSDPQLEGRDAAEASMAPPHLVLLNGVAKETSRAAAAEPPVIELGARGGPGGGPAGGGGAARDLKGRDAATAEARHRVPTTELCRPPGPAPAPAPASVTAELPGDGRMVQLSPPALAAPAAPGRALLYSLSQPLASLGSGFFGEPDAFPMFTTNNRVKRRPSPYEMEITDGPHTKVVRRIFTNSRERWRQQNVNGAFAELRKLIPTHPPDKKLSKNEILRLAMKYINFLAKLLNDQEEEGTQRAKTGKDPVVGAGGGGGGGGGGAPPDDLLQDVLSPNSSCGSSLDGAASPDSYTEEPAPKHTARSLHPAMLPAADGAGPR
UniProt Q9Y4R8, whole entry, looked up: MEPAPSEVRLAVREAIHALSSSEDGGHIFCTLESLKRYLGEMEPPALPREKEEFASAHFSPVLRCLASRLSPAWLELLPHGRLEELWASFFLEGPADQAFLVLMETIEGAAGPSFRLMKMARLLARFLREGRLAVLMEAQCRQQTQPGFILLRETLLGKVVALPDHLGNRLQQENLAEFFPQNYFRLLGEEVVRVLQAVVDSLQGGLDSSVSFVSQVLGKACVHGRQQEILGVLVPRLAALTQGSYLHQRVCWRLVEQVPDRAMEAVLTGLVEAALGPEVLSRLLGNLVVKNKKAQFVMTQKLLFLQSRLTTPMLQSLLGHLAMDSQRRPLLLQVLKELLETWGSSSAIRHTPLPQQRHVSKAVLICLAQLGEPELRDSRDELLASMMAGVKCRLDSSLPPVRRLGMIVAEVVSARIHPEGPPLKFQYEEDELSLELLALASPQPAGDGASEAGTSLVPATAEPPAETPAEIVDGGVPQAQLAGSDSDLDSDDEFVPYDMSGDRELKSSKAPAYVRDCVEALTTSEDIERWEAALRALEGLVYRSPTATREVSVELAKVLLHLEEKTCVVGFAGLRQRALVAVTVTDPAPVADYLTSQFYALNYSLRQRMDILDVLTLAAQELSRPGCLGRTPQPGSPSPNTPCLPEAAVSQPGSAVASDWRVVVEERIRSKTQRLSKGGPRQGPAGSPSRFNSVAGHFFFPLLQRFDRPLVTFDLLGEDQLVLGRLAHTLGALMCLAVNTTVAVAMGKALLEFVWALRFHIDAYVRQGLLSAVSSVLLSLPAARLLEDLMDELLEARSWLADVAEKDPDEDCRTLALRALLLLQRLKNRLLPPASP
UniProt Q9P2M4: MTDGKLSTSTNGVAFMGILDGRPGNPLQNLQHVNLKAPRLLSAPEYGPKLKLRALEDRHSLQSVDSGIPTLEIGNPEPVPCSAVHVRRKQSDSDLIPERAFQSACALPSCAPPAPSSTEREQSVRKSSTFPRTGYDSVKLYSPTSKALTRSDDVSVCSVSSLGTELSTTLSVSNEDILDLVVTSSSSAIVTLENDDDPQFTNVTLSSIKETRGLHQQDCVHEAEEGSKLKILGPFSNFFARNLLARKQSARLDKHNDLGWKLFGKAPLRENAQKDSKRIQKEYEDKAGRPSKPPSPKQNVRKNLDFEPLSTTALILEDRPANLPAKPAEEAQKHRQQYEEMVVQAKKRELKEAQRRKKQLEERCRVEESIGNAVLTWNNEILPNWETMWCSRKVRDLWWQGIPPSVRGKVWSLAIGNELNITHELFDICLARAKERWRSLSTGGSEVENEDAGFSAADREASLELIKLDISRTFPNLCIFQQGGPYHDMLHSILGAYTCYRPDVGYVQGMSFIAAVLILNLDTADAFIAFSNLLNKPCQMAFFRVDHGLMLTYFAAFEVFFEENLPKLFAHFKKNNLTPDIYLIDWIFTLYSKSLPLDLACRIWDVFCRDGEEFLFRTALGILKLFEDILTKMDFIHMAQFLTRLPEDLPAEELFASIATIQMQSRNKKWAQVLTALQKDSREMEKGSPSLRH

What was measured:
Experiment in all cases: log2 fold change, soluble protein after heating vs DMSO (PISA); higher = thermal stabilisation; K562 lysate, 10 uM; active = over 0.2 and 3.5 SD of the protein, either way, in both replicates (recomputed)
[1] = compound: CS(=O)(=O)CCNCc1ccc(-c2ccc3ncnc(Nc4ccc(OCc5cccc(F)c5)c(Cl)c4)c3c2)o1 [lapatinib]
Outline: (§1)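 To prepare the extract, K562 pellets were dounce-homogenised in PBS pH 7.4 with 1 mM MgCl2, giving crude material at 1 mg/mL protein. This was treated with 10 μM compound for 30 min, then heated in aliquots for 3 min over 48°C-58°C before pooling and addition of NP-40 to 0.5% at 4°C. Centrifugation at 21,000xg for 90 min left soluble protein in the supernatant, which TMTpro 16plex LC-MS/MS quantified with equalised channel sums. Results are log-two fold changes in thermal stability compared with solvent controls, from duplicates.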

[2] = compound: CS(=O)(=O)N1CCN(Cc2cc3nc(-c4cccc5[nH]ncc45)nc(N4CCOCC4)c3s2)CC1 [pictilisib]
Outline: as §1

[3] = compound: C[C@@H](Oc1cc(-c2cnn(C3CCNCC3)c2)cnc1N)c1c(Cl)ccc(F)c1Cl [crizotinib]
Outline: as §1

[4] = compound: C[C@H](C1=CC=C(C=C1)C(=O)NC2=C3C=CNC3=NC=C2)N
Outline: as §1

[5] = compound: C[C@H](Nc1ncnc2nc[nH]c12)c1cc2cccc(Cl)c2c(=O)n1-c1ccccc1 [duvelisib]
Outline: as §1

[6] = compound: Cc1cc(Nc2cc(CN3CCOCC3)c3nc(C)c(Cc4ccc(Cl)cc4F)n3n2)n[nH]1 [gandotinib]
Outline: as §1

[7] = compound: Cc1cc(Nc2cc(N3CCN(C)CC3)nc(Sc3ccc(NC(=O)C4CC4)cc3)n2)n[nH]1 [tozasertib]
Outline: as §1

[8] = compound: Cc1ccc(-n2nc(C(C)(C)C)cc2NC(=O)Nc2ccc(OCCN3CCOCC3)c3ccccc23)cc1 [doramapimod]
Outline: as §1

[9] = compound: Cc1ccc(NC(=O)c2ccc(CN3CC[C@H](N(C)C)C3)c(C(F)(F)F)c2)cc1Nc1nccc(-c2cncnc2)n1 [bafetinib]
Outline: as §1

[10] = compound: Cc1cccc(CC(=O)N2CCc3c2ccc(-c2cn(C)c4ncnc(N)c24)c3F)n1
Outline: as §1

[11] = compound: Cc1cn(-c2cc(NC(=O)c3ccc(C)c(Nc4nccc(-c5cccnc5)n4)c3)cc(C(F)(F)F)c2)cn1 [nilotinib]
Outline: as §1

[12] = compound: Cc1nc(Nc2n[nH]c3c2CN(C(=O)N[C@H](CN(C)C)c2ccccc2)C3(C)C)c2sccc2n1
Outline: as §1

[13] = compound: Cc1nc(Nc2ncc(C(=O)Nc3c(C)cccc3Cl)s2)cc(N2CCN(CCO)CC2)n1 [dasatinib]
Outline: as §1

[14] = compound: Cc1ncc(-c2ccnc(Nc3ccc(S(C)(=O)=O)cc3)n2)n1C(C)C
Outline: as §1

[15] = compound: Cn1cc(-c2ccc3c(c2)CCN3C(=O)Cc2cccc(C(F)(F)F)c2)c2c(N)ncnc21
Outline: as §1

[16] = compound: Cn1cc(CNCC2CCN(c3ncc(C(=O)NO)cn3)CC2)c2ccccc21 [quisinostat]
Outline: as §1

[17] = compound: Cn1cncc1[C@@](N)(c1ccc(Cl)cc1)c1ccc2c(c1)c(-c1cccc(Cl)c1)cc(=O)n2C [tipifarnib]
Outline: as §1

[18] = compound: NC(=O)Nc1cc(-c2cccc(F)c2)sc1C(=O)N[C@H]1CCCNC1
Outline: as §1

[19] = compound: NC(=O)c1cnc(N[C@@H]2CCCC[C@@H]2N)nc1Nc1cccc(-n2nccn2)c1
Outline: as §1

[20] = compound: NC1(c2ccc(-c3nc4ccn5c(=O)[nH]nc5c4cc3-c3ccccc3)cc2)CCC1
Outline: as §1

Measured: log2 fold change

TALDO1 (UniProt P37837)
inactive: [1] 0.085 | [2] 0.025 | [3] 0.039 | [4] 0.035 | [5] -0.018 | [6] -0.1 | [7] -0.014 | [8] -0.026 | [9] -0.008 | [10] -0.103 | [11] -0.004 | [12] -0.009 | [13] -0.008 | [14] -0.027 | [15] 0.022 | [16] 0.068 | [17] 0.047 | [18] -0.001 | [19] -0.016 | [20] 0.043

TANGO2 isoform 4 (UniProt Q6ICL3)
inactive: [1] 0.013 | [2] -0.018 | [3] -0.018 | [4] 0.057 | [5] 0.005 | [6] -0.066 | [7] 0.054 | [8] 0.009 | [9] 0.114 | [10] 0 | [11] 0.031 | [12] 0.056 | [13] 0.014 | [14] -0.05 | [15] -0.017 | [16] 0.057 | [17] -0.008 | [18] -0.017 | [19] 0.039 | [20] -0.019

TCP1 (UniProt P17987)
inactive: [1] -0.024 | [2] 0.003 | [3] 0.01 | [4] 0.012 | [5] 0.025 | [6] -0.007 | [7] -0.008 | [8] -0.001 | [9] 0.03 | [10] -0.006 | [11] 0.001 | [12] -0.015 | [13] 0.013 | [14] -0.004 | [15] -0.007 | [16] 0.018 | [17] 0.007 | [18] -0.02 | [19] -0.011 | [20] 0.022

TEX30 (UniProt Q5JUR7)
inactive: [1] -0.07 | [2] -0.122 | [3] -0.035 | [5] 0.102 | [6] 0.007 | [7] -0.003 | [8] 0.036 | [9] 0.066 | [10] 0.069 | [11] -0.036 | [12] 0.072 | [13] -0.109 | [14] 0.003 | [15] -0.004 | [16] 0.007 | [17] 0 | [18] 0.046 | [19] -0.017 | [20] -0.052
active: [4] -0.517

TAGLN2 isoform 2 (UniProt P37802)
inactive: [1] 0.013 | [2] -0.022 | [3] 0.009 | [4] 0.058 | [5] 0.017 | [6] -0.001 | [7] 0.027 | [8] -0.004 | [9] 0.024 | [10] -0.025 | [11] 0.022 | [12] -0.025 | [13] 0.024 | [14] 0.002 | [15] -0.014 | [16] -0.001 | [17] 0.005 | [18] -0.012 | [19] 0.007 | [20] -0.002

TATDN2 (UniProt Q93075)
inactive: [1] -0.13 | [2] 0.128 | [3] -0.009 | [4] -0.047 | [5] 0.047 | [6] 0.018 | [7] 0.024 | [8] -0.014 | [9] -0.028 | [10] 0.012 | [11] -0.015 | [12] 0.027 | [13] -0.075 | [14] 0.005 | [15] -0.012 | [16] 0.001 | [17] -0.012 | [18] 0.014 | [19] 0.068 | [20] -0.114

TCERG1 (UniProt O14776)
inactive: [1] 0.008 | [2] -0.013 | [3] 0.043 | [4] -0.026 | [5] -0.043 | [6] -0.012 | [7] 0.006 | [8] -0.024 | [9] -0.029 | [10] 0.033 | [11] -0.023 | [12] -0.017 | [13] -0.049 | [14] -0.012 | [15] 0.004 | [16] 0.047 | [17] 0.012 | [18] 0 | [19] 0.013 | [20] 0.06

TDP2 isoform 2 (UniProt O95551)
inactive: [1] -0.048 | [2] 0.027 | [3] 0.024 | [4] 0.01 | [5] 0.013 | [6] -0.013 | [7] 0.006 | [8] 0.046 | [9] -0.02 | [10] 0.006 | [11] -0.029 | [12] 0.014 | [13] -0.013 | [14] 0.006 | [15] 0.054 | [16] -0.007 | [17] 0.012 | [18] 0 | [19] 0.011 | [20] -0.038

TBC1D10B (UniProt Q4KMP7)
inactive: [1] 0.029 | [2] -0.048 | [3] -0.01 | [4] -0.005 | [5] 0.013 | [6] -0.01 | [7] -0.066 | [8] -0.027 | [9] 0.021 | [10] 0.039 | [11] -0.042 | [12] 0.019 | [13] -0.028 | [14] -0.038 | [15] 0.024 | [16] 0.076 | [17] 0.026 | [18] 0.011 | [19] -0.049 | [20] 0.015

TF (UniProt P02787)
inactive: [1] -0.013 | [2] -0.015 | [3] 0.084 | [4] -0.119 | [5] 0.033 | [6] 0.122 | [7] 0.01 | [8] -0.007 | [9] 0.008 | [10] 0.025 | [11] -0.146 | [12] -0.069 | [13] 0.02 | [14] -0.261 | [15] 0.017 | [16] -0.071 | [17] -0.007 | [18] 0.023 | [19] -0.025 | [20] -0.007

TCP11L1 (UniProt Q9NUJ3)
inactive: [1] -0.008 | [2] -0.028 | [3] -0.022 | [4] -0.204 | [5] -0.024 | [6] 0.066 | [7] -0.069 | [8] -0.017 | [9] -0.007 | [10] 0.146 | [11] 0.062 | [12] -0.114 | [13] -0.034 | [14] -0.035 | [15] 0.01 | [16] -0.055 | [17] -0.003 | [18] 0.051 | [19] -0.022 | [20] 0.028

TBCA (UniProt O75347)
inactive: [1] 0.014 | [2] 0.039 | [3] 0.021 | [4] -0.027 | [5] 0.012 | [6] -0.011 | [7] 0.041 | [8] 0.031 | [9] 0.045 | [10] -0.028 | [11] 0.006 | [12] -0.022 | [13] 0.005 | [14] -0.025 | [15] -0.074 | [16] 0.051 | [17] 0.016 | [18] -0.074 | [19] 0.016 | [20] 0.007

TAF7 (UniProt Q15545)
inactive: [1] 0.028 | [2] -0.011 | [3] 0.028 | [4] -0.04 | [5] -0.004 | [6] 0.089 | [7] 0.038 | [8] 0.066 | [9] -0.027 | [10] -0.04 | [11] 0.003 | [12] -0.009 | [13] -0.001 | [14] -0.042 | [15] 0.019 | [16] -0.018 | [17] -0.036 | [18] 0.002 | [19] 0.044 | [20] 0.006

TAL1 (UniProt P17542)
inactive: [1] -0.084 | [2] 0.004 | [3] 0.022 | [4] -0.032 | [5] -0.019 | [6] 0.133 | [7] 0.028 | [8] 0.028 | [9] -0.048 | [10] 0.051 | [11] 0.024 | [12] -0.044 | [13] 0.034 | [14] -0.052 | [15] 0.021 | [16] -0.034 | [17] -0.059 | [18] 0.037 | [19] -0.054 | [20] -0.024

TELO2 (UniProt Q9Y4R8)
inactive: [1] -0.016 | [2] -0.01 | [3] -0.053 | [4] -0.038 | [5] -0.015 | [6] -0.087 | [7] -0.012 | [8] 0.037 | [9] -0.054 | [10] 0.056 | [11] -0.012 | [12] -0.014 | [13] -0.082 | [14] -0.021 | [15] 0.035 | [16] -0.057 | [17] -0.013 | [18] 0.058 | [19] 0.003 | [20] -0.03

TBC1D14 (UniProt Q9P2M4)
inactive: [1] 0.081 | [2] -0.042 | [3] -0.007 | [4] -0.072 | [5] -0.063 | [6] -0.021 | [7] 0.052 | [8] 0.069 | [9] 0.012 | [10] 0.119 | [11] 0.024 | [12] 0.047 | [13] -0.042 | [14] -0.079 | [15] -0.146 | [16] -0.151 | [17] -0.125 | [18] -0.027 | [19] -0.019 | [20] 0.114

2 successive records from above, quoted:
TBC1D10B (UniProt Q4KMP7)
inactive: [1] 0.029 | [2] -0.048 | [3] -0.01 | [4] -0.005 | [5] 0.013 | [6] -0.01 | [7] -0.066 | [8] -0.027 | [9] 0.021 | [10] 0.039 | [11] -0.042 | [12] 0.019 | [13] -0.028 | [14] -0.038 | [15] 0.024 | [16] 0.076 | [17] 0.026 | [18] 0.011 | [19] -0.049 | [20] 0.015

TF (UniProt P02787)
inactive: [1] -0.013 | [2] -0.015 | [3] 0.084 | [4] -0.119 | [5] 0.033 | [6] 0.122 | [7] 0.01 | [8] -0.007 | [9] 0.008 | [10] 0.025 | [11] -0.146 | [12] -0.069 | [13] 0.02 | [14] -0.261 | [15] 0.017 | [16] -0.071 | [17] -0.007 | [18] 0.023 | [19] -0.025 | [20] -0.007
